Experimental data reported in paper PMC4284802, “The tumour suppressor DLC2 ensures mitotic fidelity by coordinating spindle positioning and cell–cell adhesion” (Nature Communications, 2014).
No constants are given. Whether binding was seen depends on the method and setting. Binding can be weak; no strength is given. For some assays here: Sequences can lack the tags named with a protein. For some assays here: In cells and extracts the contact can be indirect. One block for each molecule: values may come before it.

What was measured:
[1] = molecular target: T1, DLC2 (Deleted in Liver Cancer 2; STARD13) (human (endogenous in HCE)) (UniProt Q9Y3M8); assay: co-IP; HCE cell extracts (0.5% Triton-X-100 in PBS, 4 °C, protease and phosphatase inhibitors); goat anti-DLC2 or rabbit anti-Kif1B antibodies conjugated to Protein G-Sepharose, control IgG of the same species; 2 h at 4 °C; immunoblot
T1 sequence: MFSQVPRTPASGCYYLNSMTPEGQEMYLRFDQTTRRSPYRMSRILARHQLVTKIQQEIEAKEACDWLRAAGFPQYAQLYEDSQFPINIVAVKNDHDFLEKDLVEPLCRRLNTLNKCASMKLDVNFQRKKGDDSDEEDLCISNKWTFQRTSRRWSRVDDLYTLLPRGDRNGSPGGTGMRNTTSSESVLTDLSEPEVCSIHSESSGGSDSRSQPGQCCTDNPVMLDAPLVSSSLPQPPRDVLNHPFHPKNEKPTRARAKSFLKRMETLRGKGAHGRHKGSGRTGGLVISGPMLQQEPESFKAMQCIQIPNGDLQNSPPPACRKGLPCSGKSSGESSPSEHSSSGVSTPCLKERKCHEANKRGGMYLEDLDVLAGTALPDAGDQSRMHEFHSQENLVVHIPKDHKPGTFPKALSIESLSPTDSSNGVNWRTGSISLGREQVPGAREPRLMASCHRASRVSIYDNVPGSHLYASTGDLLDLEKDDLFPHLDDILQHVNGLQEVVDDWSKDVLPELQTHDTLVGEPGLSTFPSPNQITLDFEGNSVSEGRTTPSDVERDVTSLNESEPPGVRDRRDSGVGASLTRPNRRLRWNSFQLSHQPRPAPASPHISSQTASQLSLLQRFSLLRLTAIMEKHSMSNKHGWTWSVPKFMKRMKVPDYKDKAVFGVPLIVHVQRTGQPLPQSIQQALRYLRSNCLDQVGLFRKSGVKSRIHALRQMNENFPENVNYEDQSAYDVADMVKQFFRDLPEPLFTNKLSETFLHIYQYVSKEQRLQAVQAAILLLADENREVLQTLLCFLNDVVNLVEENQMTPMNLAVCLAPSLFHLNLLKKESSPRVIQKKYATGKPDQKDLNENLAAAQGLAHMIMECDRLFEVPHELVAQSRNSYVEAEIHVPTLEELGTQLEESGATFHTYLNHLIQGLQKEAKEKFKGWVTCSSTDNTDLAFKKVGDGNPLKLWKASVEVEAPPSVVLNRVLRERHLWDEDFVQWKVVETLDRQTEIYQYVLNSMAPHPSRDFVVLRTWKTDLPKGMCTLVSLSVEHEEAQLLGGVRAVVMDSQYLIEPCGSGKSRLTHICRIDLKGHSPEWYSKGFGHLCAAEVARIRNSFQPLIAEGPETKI

[2] = molecular target: taxol-stabilized microtubules; assay: co-sedimentation; GST-fusion proteins (20 μg ml^-1) incubated with taxol-stabilized microtubules (0.45 mg ml^-1) 30 min at room temperature, centrifugation at 55,000 r.p.m. 40 min at 25 °C; supernatant and pellet immunoblotted for GST and α-tubulin; both purified

binding [1]: binds
Molecule: E-cadherin (human (endogenous in HCE))

binding [2]: binds
B1: DLC2 SAM domain (residues 1-130) fused to GST (domain or fragment, human, UniProt Q9Y3M8-1 1-130, looked up)
chain: MFSQVPRTPASGCYYLNSMTPEGQEMYLRFDQTTRRSPYRMSRILARHQLVTKIQQEIEAKEACDWLRAAGFPQYAQLYEDSQFPINIVAVKNDHDFLEKDLVEPLCRRLNTLNKCASMKLDVNFQRKKG
notes: cloned into pGEX4T3; Vector pGEX4T3; also called SAM domain construct; GST-fusion protein containing the SAM domain; source: E. coli BL21pLysS, purified (glutathione-agarose)
